# Data as given in US20230272086A1.
# Changes are numbered by the printed parent chain. No constants are given. Whether binding was seen depends on the method and setting. Some binding calls cover weakened binding; strength is not graded here.
# B1: Humanized 31C8-1.1 (antibody, human IgG2, kappa, V domains shown)
# VH: EVQLVQSGAEVKKPGATVKISCKASGYIFIDSEMHWVQQAPGKGLEWMGAIDPETGDTVYAEKFQGRVTITADKSSSTAYMELSSLRSEDTAVYYCTGSTTDYYFAYWGQGTLVTVSS
# VL: DIQMTQSPSSLSASVGDRVTITCRSSKSLLHSNGIIYLYWYQQKPGKAPKLLIYQLSNLASGVPSRFSSSGSGTDFTLTISSLQPEDFATYYCAQNLELPFTFGQGTKVEIKR
# B2: Humanized 31C8-1.2 (antibody, human IgG2, kappa, V domains shown)
# VH: B1 VH with E1Q, E10K, E62K, Q65K
# VL: B1 VL
# B3: GSK3772847 (antibody STLM208 in CN104411333, prepared in-house) (antibody, human IgG2, kappa, V domains shown)
# VH: EVQLLESGGGLVQPGGSLRLSCAASGFTFSIYDMIWVRQAPGKGLEWVSSIRGEGGGTYYADSVKGRFTISRDNSKNTLYLQMNSLRAEDTAVYYCARDPWSTEGSFFVLDYWGQGTLVTVSS
# VL: EIVLTQSPATLSLSPGERATLSCRASQSVDDDLAWYQQKPGQAPRLLIYDASNRATGIPARFSGSGSGTDFTLTISSLEPEDFAVYYCQQYITAPLTFGQGTKVEIKR
# B4: Chimeric 7D1 (antibody, human IgG2, kappa, V domains shown)
# VH: QVQLQQSGAELVRPGASVTLSCKASGYTFTDYEMHWVKQTPVHGLDWIGTIDPETGDTAYNQKFKGRATLTADKSSSTAYMELSSLTSEDSAVYYCTRYSYTNSPYGMDYWGQGTSVTVSS
# VL: DVVMTQTPKFLLVSAGDRVTITCKASQSVSNDVAWYQQKPGQSPKLLIYYASNRYTGVPDRFTGSGYGTDFTFTINTVQAEDLAVYFCQQDYSSPYTFGGGTKLEIKR
# B5: Chimeric 17E2 (antibody, human IgG2, kappa, V domains shown)
# VH: QVQLQQSGAELVRPGASVTLSCKASGYTFTDYEMHWVKQTPVLGLEWIGAIDPETGDTAYNQKFKGKATLTADKSSSTAYMELSSLASEDSAVYYCIRVDSNYDYFDYWGQDTTLTVSS
# VL: DIVLTQSPPILSASPGEKVTMTCRASSSVSYMHWYQQKPGSSPKPWIYDTSNLASGVPARFSGSGSGTSYSLTISRVEAEDAATYYCQQWSSNPLTFGAGTKLELKR
# B6: Chimeric 26A1 (antibody, human IgG2, kappa, V domains shown)
# VH: QVQLQQSGAELVRPGASVTLSCKASDYIFTDSEIHWVKQTLVHGLEWIGAIDPETGDTAYNQKFKGKATLTADKSSSTAYMELSSLTSEGSAVYYCSGSTTDCYFAYWGQGTTLTVSS
# VL: DIVMTQAAFSNPVTLGTSASISCRSSKSLLHSNGIIYLYWYLQKPGQSPQLLIYQMSNLASGVPDRFSSSGSGTDFTLRISRVEAEDVGVYYCAQNLELPFTFGSGTKLEIKR
# B7: Chimeric 31C8 (antibody, human IgG2, kappa, V domains shown)
# VH: B6 VH with A9P, D26G, T30I, I34M, L41P, A59V, Y80S, G90D, S97T, C103Y
# VL: B6 VL
# B8: Chimeric 3C6 (antibody, human IgG2, kappa, V domains shown)
# VH: QVQLQQSGAEVVRPGASVTLSCKASDYTITDYEMHWVKQTPVHGLEWIGAIDPETGDTAYSQNFKGKATLTADESSSTAYMELSSLTSEDSAVYYCSRSATDYYFASWGQGTTLTVSS
# VL: B6 VL with F9I, I21M, I36T, Q47H, R79K
# B9: Chimeric 8F4 (antibody, human IgG2, kappa, V domains shown)
# VH: B6 VH with D26G, Y27H, S32Y, I34M, H35Q, L41P, I51F, G90D, C103Y, T113S
# VL: B6 VL with I2V, A7T
# Target: cynomolgus monkey ST2 antigen (Cyno-ST2-his, Sino biological, 90915-C08H) (cynomolgus monkey)
# Assay: ELISA
row,binding,Binder
1,binds,B1
2,binds,B2
3,binds,B3
4,binds,B4
5,binds,B5
6,binds,B6
7,binds,B7
8,binds,B8
9,binds,B9

# Target: cynomolgus monkey ST2 antigen (Cyno-ST2-his, Sino biological, 90915-C08H) (cynomolgus monkey)
# Assay: ELISA, plate coated with Cyno-ST2-his, HRP secondary antibody, OD450
row,binding,Binder
1,binds,B1
2,binds,B2
3,binds,B3
4,binds,B4
5,binds,B5
6,binds,B6
7,binds,B7
8,binds,B8
9,binds,B9
